Results: patent publication US20240327509A1, “HUMAN CXCLI6 ANTIBODIES AND THE USE THEREOF” (CELLUS,INC., priority 2021, published 2024)
For at least one compound, name, drawing or mass did not settle the structure.

Tested on: anaplastic thyroid cancer cell line FRO
Assay: bone metastasis mouse model (tibia transplantation), bioluminescence imaging
Type: in vivo, BALB/c nude mice
Conditions: ZA intravenously 4 μg/mouse once a week from day 3; BLI at 4-5 weeks

Structure (SMILES): O=P(O)(O)C(O)(Cn1ccnc1)P(=O)(O)O [ZA, zoledronic acid]
- Bone tumor observed in ZA-treated mice: 7 out of 16
